In paper PMC4169428 one finds binding data, which are given here for two substances.

Chains of the proteins cited; added tags and fusions are not shown.
UniProt P50750: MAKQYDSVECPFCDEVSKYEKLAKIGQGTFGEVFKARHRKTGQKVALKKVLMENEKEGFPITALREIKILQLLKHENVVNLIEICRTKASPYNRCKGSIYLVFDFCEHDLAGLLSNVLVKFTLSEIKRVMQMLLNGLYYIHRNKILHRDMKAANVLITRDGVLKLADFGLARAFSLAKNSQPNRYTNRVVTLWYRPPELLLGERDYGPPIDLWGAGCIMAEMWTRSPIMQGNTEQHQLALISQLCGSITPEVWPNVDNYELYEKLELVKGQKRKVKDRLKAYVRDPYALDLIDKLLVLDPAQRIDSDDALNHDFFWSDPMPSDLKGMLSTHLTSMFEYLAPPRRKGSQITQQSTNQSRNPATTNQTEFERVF

No constants are given. Whether binding was seen depends on the method and setting. For some of these results: Binding seen in cells or lysates may run through a third protein. Some entries that bind do so weakly or less than the wild type. For some of these results: Tags and fused reporters may be left off the sequences shown.

Test [1] deals with GST-193-256 (residues 193 to 256 of HSV-1 ICP22, GST-tagged) (Herpes Simplex Virus 1 (HSV-1)) (UniProt P04485). The experiment in a line: pull-down; GST-tagged proteins immobilized on Sepharose 4B-glutathione beads, incubated with 400 µl HeLa nuclear extract at 4°C for 2 h; washes with 0.15 M and 0.3 M KCl HEGN buffer (20 mM Hepes pH 7.6, 10% glycerol, 0.2% NP-40, 0.1 mM EDTA, 1 mM DTT); beads boiled; western blot with anti-pol II and anti-CDK9; only the target purified. A general note: A western blot detects proteins with antibodies after separation by electrophoresis.

In test [2] the target is T1, GST-ICP22 (Herpes Simplex Virus 1 ICP22 protein, full length, GST-tagged) (Herpes Simplex Virus 1 (HSV-1)) (UniProt P04485).
T1 sequence: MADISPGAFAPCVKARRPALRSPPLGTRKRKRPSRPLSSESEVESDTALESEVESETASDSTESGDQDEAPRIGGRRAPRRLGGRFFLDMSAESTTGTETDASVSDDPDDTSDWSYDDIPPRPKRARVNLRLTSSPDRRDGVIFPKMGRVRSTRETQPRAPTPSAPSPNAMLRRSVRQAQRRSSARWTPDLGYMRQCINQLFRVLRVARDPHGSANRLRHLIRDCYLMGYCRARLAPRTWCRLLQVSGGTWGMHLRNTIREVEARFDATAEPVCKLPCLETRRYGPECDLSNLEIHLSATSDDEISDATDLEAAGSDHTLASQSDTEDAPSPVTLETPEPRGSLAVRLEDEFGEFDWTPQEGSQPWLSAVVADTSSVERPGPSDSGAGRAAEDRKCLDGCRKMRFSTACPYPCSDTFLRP
The test is described as above.

Test [3] has as its target GST-193-256 (residues 193 to 256 of HSV-1 ICP22, GST-tagged) (Herpes Simplex Virus 1 (HSV-1)) (UniProt P04485). Kind of test: pull-down; GST-tagged proteins immobilized on beads, incubated with 300 ng recombinant P-TEFb in 200 µl buffer (250 mM NaCl, 50 mM Tris pH 7.5, 1% NP40, 2 mM EDTA) at 4°C for 1 h; washed 3x, eluted with 10 mM glutathione; western blot with anti-CDK9; both purified.

Test [4] addresses T1, GST-ICP22 (Herpes Simplex Virus 1 ICP22 protein, full length, GST-tagged) (Herpes Simplex Virus 1 (HSV-1)). The description is as above.

Turning to “Cyclin-dependent kinase 9 (CDK9) in HeLa nuclear extract (from UniProt P50750 1-372)”, the binding result in test [1] and in test [2] was “binds” each time.

Regarding “recombinant P-TEFb (CDK9 and truncated Cyclin T1, residues 1-266) (from UniProt P50750 1-372; O60563 1-266) (complex)”, the binding result in test [3] and in test [4] was “binds” throughout.
